The campaign covered roughly 320,000 compounds. About 22,000 (6.9%) were called active. This list was built around the results that the source calls inconclusive (neither active nor inactive); the mix of calls is not that of the screen. Calls follow the shape of the dose curve; as a rule, active = well fitted inhibition curve with a large enough effect; inconclusive = small, poorly fitted or top-dose-only effect, or another doubt; inactive = no such curve, though single readings can be large or run the other way. Potencies of inconclusive entries are doubtful fits and often do not repeat.
Assay: Primary qHTS for delayed death inhibitors of the malarial parasite plastid, 96 hour incubation
Conditions: P. falciparum luciferase reporter growth; series mostly up to 28.7 µM; activity change, negative = inhibition: at the top concentration
How it was run: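 Readout is luminescence from an integrated firefly luciferase in P. falciparum. Red cells, 2% hematocrit and 0.05% parasitemia final, were cultured with compound through two parasite generations (96 hours) at 37 C, 5% CO2.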
% is scaled to controls: 0 for no effect and ±100 for the full control effect; potency is read from the fitted curve at half-maximal effect.

SMILES	activity change, negative = inhibition	Potency
O=S(=O)(NCCSc1nnnn1-c1ccccc1)c1cccs1	inactive: -1.17%	
C1=Nc2ccccc2CN1c1ccccc1	inactive: -9.25%	
CCOC(=O)c1[nH]c(C(=O)O)c(OC(=O)CC)c1C	inactive: 45.8%	
CCN1CCN(c2ccc(S(=O)(=O)N3CCCCC3)cc2NC(=O)c2ccc(OC(F)F)cc2)CC1		inconclusive: 11.7 µM [inhibitor, single point]
O=C(Nc1ccn(Cc2c(F)c(F)c(F)c(F)c2F)n1)c1ccc(COc2ccccc2Cl)cc1		inconclusive: 2.94 µM [inhibitor, partial curve, poor fit]
COc1ccc(NS(=O)(=O)c2ccc(/C=C/C(=O)O)cc2)cc1S(=O)(=O)N1CCOCC1	inactive: 9.83%	
O=C1CCCc2ccccc2N1Cc1ccccc1		inconclusive: 0.522 µM [inhibitor, full curve, poor fit]
COc1cc(CN2CCCC(C(=O)Nc3ccccc3Oc3cccnc3)C2)ccc1F (centres undefined)		inconclusive: 9.28 µM [inhibitor, single point]
CCCSc1nc(NCc2ccco2)c2c3c(sc2n1)COC(C)(C)C3		inconclusive: 11.7 µM [inhibitor, partial curve, poor fit]
Cc1ccc(C(=O)N2CCN(S(=O)(=O)N3CCOCC3)CC2)cc1		inconclusive: 18.5 µM [inhibitor, single point]
CC12CCC3c4ccc(O)cc4CCC3C1CC(O)C2O (centres undefined)	inactive: 0.851%	
O=C(CCN1C(=O)/C(=C/c2ccccc2Cl)SC1=S)NC1C=CS(=O)(=O)C1 (centres undefined)		inconclusive: 1.04 µM [inhibitor, partial curve]
O=C(NC1CC1)c1ccc2c(c1)NC(=O)c1ccccc1S2		active: 8.28 µM
CN(c1ccccc1C(=O)N1CCN(c2ccccc2F)CC1)S(=O)(=O)c1ccccc1		active: 10.4 µM
Cc1cc(C)c2nc(N(CCCN(C)C)C(=O)c3ccc4c(c3)OCCO4)sc2c1		active: 7.38 µM
COc1ccc(C(=O)NC(=S)N2CCC(C)CC2)cc1Br		inconclusive: 7.38 µM [inhibitor, partial curve]
Cc1cccn2c(=O)c(/C=C(\C#N)C(=O)NCc3ccccc3)c(N3CCC(C(N)=O)CC3)nc12	inactive: 0%	
COc1ccccc1CN1CCNC(=O)C1CC(=O)NCCOc1cccnc1 (centres undefined)		inconclusive: 11.7 µM [inhibitor, partial curve, poor fit]
O[C@H]1[C@H]2[C@H](O)CCCN2C[C@H]1O		active: 9.53 µM
O=S(=O)(c1ccc(Cl)cc1)N1CCCC1c1cccnc1 (centres undefined)		inconclusive: 0.522 µM [inhibitor, full curve, poor fit]
CNC(=O)NC(=O)C(C)OC(=O)c1oc2ccccc2c1CSc1ccc(Cl)cc1 (centres undefined)		inconclusive: 10.4 µM [inhibitor, single point]
C[C@@H](C(=O)Nc1ccc2ccccc2c1)[C@H]1C[C@]1(C)[C@H](NS(=O)(=O)c1ccc(-c2ccccc2)cc1)c1ccccc1		active: 8.28 µM

SMILES	activity change, negative = inhibition	Potency
CN1C(=O)/C(=C2\SC(=S)N(NC(=O)c3cccnc3)C2=O)c2ccccc21		active: 2.94 µM
CC(=O)Nc1ccc(S(=O)(=O)Nc2nccs2)cc1		inconclusive: 18.5 µM [inhibitor, single point]
Cc1nc2c(cc1NC(=O)c1ccccc1)nc(C)n2Cc1ccccc1		active: 11.7 µM
CC(C)c1ccc(S(=O)(=O)N2CCN(C(=O)CN3C(=O)NC(C)(c4ccccc4)C3=O)CC2)cc1 (centres undefined)		inconclusive: 10.4 µM [inhibitor, single point]
COc1ccc(NC(=O)CCCn2c(=O)c3sccc3n(Cc3ccccc3)c2=O)cc1		inconclusive: 11.7 µM [inhibitor, single point]
O=C(Nc1cc(Cl)cc(Cl)c1)c1coc(=O)c(Br)c1		inconclusive: 1.47 µM [inhibitor, partial curve]
CCCCCCNC(=O)c1c(O)c2cccc3c2n(c1=O)CCC3		inconclusive: 18.5 µM [inhibitor, single point]
Cc1cc2c3c(c1)C(C)CC(C)(C)N3C(=O)C2=C(C#N)C#N (centres undefined)		inconclusive: 11.7 µM [inhibitor, single point]
COc1ccc(CN(C)CC(=O)Nc2cccc3ccccc23)cc1F	inactive: 10.4%	
CCOc1cccc(CN2CCC(n3nccc3NC(=O)C3CC3)CC2)c1O		inconclusive: 10.4 µM [inhibitor, partial curve, poor fit]
CCOCCCNC(=O)CN1C(=O)c2cccc3cccc1c23		inconclusive: 4.15 µM [inhibitor, single point]
COc1ccc(-n2nc(C(=O)NCC(=O)N3CCN(c4ccccc4OC)CC3)c3ccccc3c2=O)c(OC)c1		inconclusive: 4.15 µM [inhibitor, partial curve]
O=C(Cn1ncc2c1-c1ccccc1OC2)N1CCN(Cc2ccc3c(c2)OCO3)CC1		active: 4.65 µM
COc1ccc2c(c1)c(CC(=O)Nc1ccc(C(C)=O)cc1)c(C)n2C(=O)c1ccc(Cl)cc1	inactive: -25.6%	
COc1ccc(CCN(Cc2ccc(C(C)C)cc2)S(=O)(=O)c2ccc(S(=O)(=O)N(C)C)cc2)cc1OC		inconclusive: 18.5 µM [inhibitor, single point]
c1ccc(N2CCN(c3nc(NCc4ccco4)c4ccccc4n3)CC2)cc1		active: 2.33 µM
COc1ccc(S(=O)(=O)N2CCN(Cc3cccc(OC)c3)CC2)cc1		inconclusive: 0.0465 µM [inhibitor, full curve, poor fit]
CC(C)[C@H](NC(=O)C1CCN(S(=O)(=O)c2ccccc2)CC1)C(=O)NCc1ccc(F)cc1		inconclusive: 16.5 µM [inhibitor, single point]
CCN1CC(CN(C)Cc2nc(-c3cccs3)no2)CC1=O (centres undefined)		active: 11.7 µM
CCOC(=O)c1cnn(-c2ccc(Cl)cc2)c1C1CCN(C(=O)OC(C)(C)C)CC1	inactive: -28.9%	
Cc1cc(Cl)ccc1OCCCC(=O)OCC(=O)c1c(N)n(C)c(=O)n(C)c1=O	inactive: 23%	
CCOc1ccc(C(=O)CCC(=O)N(CC)CC(=O)Nc2c(F)cccc2F)cc1		inconclusive: 18.5 µM [inhibitor, single point]

Shown in markdown: part of the list above

| SMILES | activity change, negative = inhibition | Potency |
| --- | --- | --- |
| CN1C(=O)/C(=C2\SC(=S)N(NC(=O)c3cccnc3)C2=O)c2ccccc21 |  | active: 2.94 µM |
| COc1ccc(S(=O)(=O)N2CCN(Cc3cccc(OC)c3)CC2)cc1 |  | inconclusive: 0.0465 µM [inhibitor, full curve, poor fit] |
